Source: US20110136232A1 (MAYO FOUNDATION FOR MEDICAL EDUCATION AND RESEARCH, published 2011)
No constants are given. Whether binding was seen depends on the method and setting. Binding seen in cells or lysates may run through a third protein. Some results given as binding are weak or reduced against the parent protein; the word gives no strength. For part of these data: Sequences can lack the tags named with a protein.

By UniProt entry, the sequences of proteins in these tests, tags left out.
UniProt Q14289: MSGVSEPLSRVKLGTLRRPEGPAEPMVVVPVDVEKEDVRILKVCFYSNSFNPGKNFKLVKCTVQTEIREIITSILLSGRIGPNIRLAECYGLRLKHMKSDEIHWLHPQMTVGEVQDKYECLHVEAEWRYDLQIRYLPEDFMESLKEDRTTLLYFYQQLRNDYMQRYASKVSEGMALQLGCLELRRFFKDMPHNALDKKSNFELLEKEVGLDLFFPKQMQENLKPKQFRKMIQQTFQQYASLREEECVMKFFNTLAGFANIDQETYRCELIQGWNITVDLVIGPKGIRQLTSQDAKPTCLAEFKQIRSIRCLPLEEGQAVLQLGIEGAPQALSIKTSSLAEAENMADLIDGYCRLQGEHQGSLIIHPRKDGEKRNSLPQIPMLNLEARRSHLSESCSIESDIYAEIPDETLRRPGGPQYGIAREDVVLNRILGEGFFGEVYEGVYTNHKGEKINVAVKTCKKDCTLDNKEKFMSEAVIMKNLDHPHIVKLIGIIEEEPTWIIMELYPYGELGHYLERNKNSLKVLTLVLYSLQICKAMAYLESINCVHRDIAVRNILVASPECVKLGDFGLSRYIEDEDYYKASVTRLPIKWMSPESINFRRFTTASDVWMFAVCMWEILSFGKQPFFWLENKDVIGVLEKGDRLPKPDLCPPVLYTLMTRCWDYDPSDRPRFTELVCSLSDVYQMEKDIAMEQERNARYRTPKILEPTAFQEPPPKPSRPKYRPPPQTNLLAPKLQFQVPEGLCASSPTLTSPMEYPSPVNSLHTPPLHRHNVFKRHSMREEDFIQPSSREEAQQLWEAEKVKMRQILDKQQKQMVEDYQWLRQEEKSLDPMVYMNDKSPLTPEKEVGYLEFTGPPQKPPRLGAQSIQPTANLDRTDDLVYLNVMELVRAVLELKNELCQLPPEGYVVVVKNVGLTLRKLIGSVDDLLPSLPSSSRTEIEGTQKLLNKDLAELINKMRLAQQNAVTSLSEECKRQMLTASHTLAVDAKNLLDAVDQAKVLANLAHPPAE

Legend:
[1] = target: endogenous Pyk2 of SF767 cells (human) (UniProt Q14289); experiment: co-immunoprecipitation with anti-Pyk2 antibodies from SF767-12A10 scFv cells
[2] = target: endogenous Pyk2 of SF767 cells (human) (UniProt Q14289); experiment: co-immunoprecipitation: anti-Pyk2 precipitates of SF767-12A10 scFv cells reprobed with anti-HA
[3] = target: FLAG-epitope tagged wild type Pyk2 (UniProt Q14289); experiment: co-immunoprecipitation: anti-HA precipitates of co-transfected SF767 cells blotted with anti-FLAG

Row | Binder | binding [1] | binding [2] | binding [3]
1 | 12A10 scFv stably expressed in SF767 cells by lentiviral transduction (scFv, not shown: small tags and cut ends) scFv: MEVKLQESGPELKKPGETVKISCKASGYTFTDYSMHWVMQSPGKGLKWMGWINTETGEPRYVDDFKGRFAFSLETSASTAYLQIINLKNEDTATYFCARWDHGHGGFTYWGQGTLVTVSAGGGGSGGGGSGGGGSDIVLTQTTASLAVSLGQRATMSCRATESVDSYGKSFMYWFQQRAGQPPKLLIYLASNLESVVPPRFSGSGSRTDFSLTIDPVEADDAATYYCQQNNEDPFTFGSGTKLEIK | binds | binds | –
2 | 12A10 scFv 3x HA (scFv) scFv: MEVKLQESGPELKKPGETVKISCKASGYTFTDYSMHWVMQSPGKGLKWMGWINTETGEPRYVDDFKGRFAFSLETSASTAYLQIINLKNEDTATYFCARWDHGHGGFTYWGQGTLVTVSAGGGGSGGGGSGGGGSDIVLTQTTASLAVSLGQRATMSCRATESVDSYGKSFMYWFQQRAGQPPKLLIYLASNLESVVPPRFSGSGSRTDFSLTIDPVEADDAATYYCQQNNEDPFTFGSGTKLEIKLEGSYPYDVPDYAGYPYDVPDYAGSYPYDVPDYAAQCGR | – | – | binds
